Experimental findings from the supplement of paper PMC12819154, “High-throughput peptide-centric local stability assay extends protein–ligand identification to membrane proteins, tissues and bacteria” (Nature Structural & Molecular Biology, 2025) are described below.

By UniProt entry, the sequences of proteins in these tests, tags left out. Where a name states a change or a piece, a line headed by the entry shows the natural chain unless it says otherwise.
UniProt Q9NR19, whole entry: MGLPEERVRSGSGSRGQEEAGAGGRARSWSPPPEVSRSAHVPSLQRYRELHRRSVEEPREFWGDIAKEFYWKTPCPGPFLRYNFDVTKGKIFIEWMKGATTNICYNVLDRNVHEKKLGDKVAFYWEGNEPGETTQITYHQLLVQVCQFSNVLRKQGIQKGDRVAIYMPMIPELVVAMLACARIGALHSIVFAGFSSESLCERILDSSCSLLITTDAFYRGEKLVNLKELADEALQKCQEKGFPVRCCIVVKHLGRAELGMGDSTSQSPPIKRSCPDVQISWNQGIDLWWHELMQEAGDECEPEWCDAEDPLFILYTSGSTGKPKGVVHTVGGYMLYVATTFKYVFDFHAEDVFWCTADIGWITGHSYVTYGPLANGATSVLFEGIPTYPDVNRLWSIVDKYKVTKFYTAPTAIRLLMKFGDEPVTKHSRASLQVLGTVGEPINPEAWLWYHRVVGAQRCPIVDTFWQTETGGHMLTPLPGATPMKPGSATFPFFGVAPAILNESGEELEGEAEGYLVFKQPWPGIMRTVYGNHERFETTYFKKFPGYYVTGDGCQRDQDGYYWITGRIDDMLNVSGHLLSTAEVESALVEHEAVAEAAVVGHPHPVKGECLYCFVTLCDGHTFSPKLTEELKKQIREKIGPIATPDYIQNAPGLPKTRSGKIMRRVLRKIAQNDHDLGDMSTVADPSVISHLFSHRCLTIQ
UniProt Q9NYF3: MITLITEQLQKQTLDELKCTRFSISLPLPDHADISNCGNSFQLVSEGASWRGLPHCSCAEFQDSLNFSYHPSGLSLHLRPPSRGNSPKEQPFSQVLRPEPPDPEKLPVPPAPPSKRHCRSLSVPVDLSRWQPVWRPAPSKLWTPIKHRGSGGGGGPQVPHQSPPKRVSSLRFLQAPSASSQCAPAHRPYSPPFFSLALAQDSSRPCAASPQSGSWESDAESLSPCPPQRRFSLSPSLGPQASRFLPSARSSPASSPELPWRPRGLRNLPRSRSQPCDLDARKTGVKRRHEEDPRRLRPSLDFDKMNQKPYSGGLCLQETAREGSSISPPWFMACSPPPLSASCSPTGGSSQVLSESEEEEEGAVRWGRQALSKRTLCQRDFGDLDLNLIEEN
UniProt Q9NRP4: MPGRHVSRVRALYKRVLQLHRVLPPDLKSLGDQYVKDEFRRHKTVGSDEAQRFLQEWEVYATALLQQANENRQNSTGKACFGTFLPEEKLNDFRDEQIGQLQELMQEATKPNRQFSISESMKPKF
UniProt Q9NYL9: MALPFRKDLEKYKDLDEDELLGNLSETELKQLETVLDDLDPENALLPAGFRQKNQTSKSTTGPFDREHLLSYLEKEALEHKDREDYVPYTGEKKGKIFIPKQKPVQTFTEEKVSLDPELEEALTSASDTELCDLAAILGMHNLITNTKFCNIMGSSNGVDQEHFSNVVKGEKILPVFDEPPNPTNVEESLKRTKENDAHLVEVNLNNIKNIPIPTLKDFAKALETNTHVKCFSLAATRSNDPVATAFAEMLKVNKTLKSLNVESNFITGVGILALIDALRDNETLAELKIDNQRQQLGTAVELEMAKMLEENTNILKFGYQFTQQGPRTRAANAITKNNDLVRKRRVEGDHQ
UniProt Q9NVA4: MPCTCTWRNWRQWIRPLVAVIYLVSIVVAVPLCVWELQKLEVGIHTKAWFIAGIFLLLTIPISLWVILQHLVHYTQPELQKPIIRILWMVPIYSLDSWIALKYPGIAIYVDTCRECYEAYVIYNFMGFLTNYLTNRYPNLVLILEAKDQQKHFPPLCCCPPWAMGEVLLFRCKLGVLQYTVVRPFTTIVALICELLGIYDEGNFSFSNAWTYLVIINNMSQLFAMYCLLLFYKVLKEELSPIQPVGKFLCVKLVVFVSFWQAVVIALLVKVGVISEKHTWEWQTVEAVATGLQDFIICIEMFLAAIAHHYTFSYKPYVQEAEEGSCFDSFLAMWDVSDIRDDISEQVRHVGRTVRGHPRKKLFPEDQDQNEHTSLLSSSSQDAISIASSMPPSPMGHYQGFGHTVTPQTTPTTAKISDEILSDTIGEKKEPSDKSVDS
UniProt Q9NRS6: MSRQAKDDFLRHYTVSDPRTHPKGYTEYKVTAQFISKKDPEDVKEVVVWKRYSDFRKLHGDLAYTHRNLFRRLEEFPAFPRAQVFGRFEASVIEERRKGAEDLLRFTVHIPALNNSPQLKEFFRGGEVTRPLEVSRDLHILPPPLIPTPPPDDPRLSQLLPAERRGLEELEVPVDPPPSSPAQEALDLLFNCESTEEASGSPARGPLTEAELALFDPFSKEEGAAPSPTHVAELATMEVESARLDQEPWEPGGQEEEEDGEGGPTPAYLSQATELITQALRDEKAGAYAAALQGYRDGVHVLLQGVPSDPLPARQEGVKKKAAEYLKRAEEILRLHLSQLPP
UniProt Q9NV35: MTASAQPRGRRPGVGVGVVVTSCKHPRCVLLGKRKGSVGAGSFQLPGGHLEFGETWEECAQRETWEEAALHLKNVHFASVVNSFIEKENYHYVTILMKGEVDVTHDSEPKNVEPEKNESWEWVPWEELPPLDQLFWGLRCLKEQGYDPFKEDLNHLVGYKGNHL

The other results are listed elsewhere or left out. Small differences around the control level are noise.

Compound in the test: CN[C@@H]1C[C@H]2O[C@@](C)([C@@H]1OC)n1c3ccccc3c3c4c(c5c6ccccc6n2c5c31)C(=O)NC4 [staurosporine]
Kind of test: log2 fold change of tryptic peptide abundance, ligand vs vehicle (limited proteolysis) (log2 ratio); higher = more trypsin-susceptible (destabilized). The note with it: ligand concentration: 20 uM; sample: K562 cleared lysate; digestion: 4 min, 22 C (HT-PELSA RT4min, Orbitrap Astral).
Take “ACSS2 (peptide sequence: YNFDVTK, peptide start residue: 82) (UniProt Q9NR19)”: the log2 fold change was -0.41.
Then “FAM53C (peptide sequence: MNQKPYSGGLCLQETAR, peptide start residue: 305) (UniProt Q9NYF3)”, with -0.25; and “UniProt Q9NRP4 (peptide sequence: QFSISESMKPKF, peptide start residue: 114)”, with 1.12; and “TMOD3 (peptide sequence: AANAITKNNDLVR, peptide start residue: 331) (UniProt Q9NYL9)”, with -0.706.
Then “TMEM184C (peptide sequence: ISDEILSDTIGEKKEPSDK, peptide start residue: 416) (UniProt Q9NVA4)”, with -0.583.
Then “SNX15 (peptide sequence: EVVVWKR, peptide start residue: 45) (UniProt Q9NRS6)”, with -0.314; and “NUDT15 (peptide sequence: NVHFASVVNSFIEK, peptide start residue: 74) (UniProt Q9NV35)”, with 0.858.
